Patent US20230357391A1 (EXELIXIS, published 2023)
Residue numbers refer to the chain shown, from its start. No constants are given. Whether binding was seen depends on the method and setting. Some results given as binding are weak or reduced against the parent protein; the word gives no strength. Each block holds one binder with its values, some of them ahead of it.

Protein sequences, listed by entry. Tags and fused reporters are not part of them. Lines headed by an entry give the natural chain unless they say otherwise; changes in a name come on top.
UniProt Q08722: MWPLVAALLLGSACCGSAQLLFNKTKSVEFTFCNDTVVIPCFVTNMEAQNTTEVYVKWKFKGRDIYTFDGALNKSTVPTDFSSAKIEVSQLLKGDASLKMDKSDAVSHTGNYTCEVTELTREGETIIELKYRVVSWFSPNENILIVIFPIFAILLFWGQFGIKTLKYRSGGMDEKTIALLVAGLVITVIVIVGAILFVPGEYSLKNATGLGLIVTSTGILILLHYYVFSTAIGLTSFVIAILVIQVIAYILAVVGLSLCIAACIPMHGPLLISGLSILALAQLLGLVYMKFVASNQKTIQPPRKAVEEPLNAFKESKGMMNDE

Legend:
mouse CD47 (mouse) = biological target: T1, mouse CD47 (mouse) (UniProt Q61735); experiment: BLI (Octet), mouse CD47 on sensor; Y = mouse cross-reactivity
T1 sequence (biotinylated, looked up): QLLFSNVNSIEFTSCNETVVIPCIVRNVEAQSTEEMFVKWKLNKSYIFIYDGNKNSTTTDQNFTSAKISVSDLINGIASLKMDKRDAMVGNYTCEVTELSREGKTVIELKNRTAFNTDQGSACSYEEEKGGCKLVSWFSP

[1] = biological target: human CD47 on cells (human) (UniProt Q08722); experiment: flow cytometry, MDA-MB-231 cells
[2] = biological target: extracellular domain of human CD47, biotinylated (human) (UniProt Q08722); experiment: BLI (Octet), qualitative
[3] = biological target: human CD47 on cells (human) (UniProt Q08722); experiment: flow cytometry on MDA-MB-231 cells, AF488 goat anti-human IgG Fab as secondary

- binding (mouse CD47 (mouse)): binds
B1: Antibody C40 (antibody, human IgG1, kappa, V domains shown)
VH: EVQLVESGGGLVQPGGSLRLSCAASGFTFSYYYIHWVRQAPGKGLEWVAWIDPYGHSTTYADSVKGRFTISADTSKNTAYLQMNSLRAEDTAVYYCARGGRGAMDYWGQGTLVTAST
VL: DIQMTQSPSSLSASVGDRVTITCRASQSVSSAVAWYQQKPGKAPKLLIYSASSLYSGVPSRFSGSRSGTDFTLTISSLQPEDFATYYCQQRYSSLLTFGQGTKVEIKR
notes: Full length IgG

- binding [1]: binds
- binding [2]: binds
- binding [3]: binds
B2: Antibody C59 (antibody, human IgG1, kappa, V domains shown)
VH: B1 VH with S30T, Y31S, W50Y, P53S, Y54K, G55H, H56G, S57T, T59Q, G102S
VL: B1 VL with Y92T, S93T
notes: Full length IgG
